Assay in all cases: co-IP; Xenopus embryos injected with mRNAs at the one-cell stage, harvested at stages 11–12, lysed in TNSG buffer (50 mM Tris-HCl pH 7.4, 150 mM NaCl, 1% NP-40, 10% glycerol) with protease and phosphatase inhibitors; anti-V5, anti-Flag M2 or anti-HA agarose, 6–8 h at 4°C; reciprocal
For assay [1], the target named is T1, X. laevis CEP97-HA (X. laevis) (UniProt Q6GPJ8).
T1 sequence: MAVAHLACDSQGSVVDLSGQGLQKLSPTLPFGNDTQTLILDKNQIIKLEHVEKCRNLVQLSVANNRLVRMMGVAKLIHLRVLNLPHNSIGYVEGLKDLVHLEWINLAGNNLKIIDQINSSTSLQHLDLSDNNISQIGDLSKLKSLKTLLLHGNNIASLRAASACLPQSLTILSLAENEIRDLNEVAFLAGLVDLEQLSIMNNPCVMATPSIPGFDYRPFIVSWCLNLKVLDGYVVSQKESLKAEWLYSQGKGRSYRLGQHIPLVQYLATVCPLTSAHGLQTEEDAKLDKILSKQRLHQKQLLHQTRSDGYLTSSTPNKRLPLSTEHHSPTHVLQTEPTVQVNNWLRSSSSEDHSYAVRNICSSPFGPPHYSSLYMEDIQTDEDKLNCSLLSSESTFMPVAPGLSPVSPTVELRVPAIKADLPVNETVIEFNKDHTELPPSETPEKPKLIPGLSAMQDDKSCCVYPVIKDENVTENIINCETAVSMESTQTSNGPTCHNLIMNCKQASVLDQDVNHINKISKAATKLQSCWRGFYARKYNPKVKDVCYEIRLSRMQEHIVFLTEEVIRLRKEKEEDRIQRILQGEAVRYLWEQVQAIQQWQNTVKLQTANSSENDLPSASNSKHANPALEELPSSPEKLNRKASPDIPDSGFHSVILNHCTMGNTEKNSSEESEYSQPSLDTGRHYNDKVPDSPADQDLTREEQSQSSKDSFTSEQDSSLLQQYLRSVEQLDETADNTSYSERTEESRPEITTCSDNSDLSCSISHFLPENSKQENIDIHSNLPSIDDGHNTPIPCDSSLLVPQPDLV

Assay [2] has as its target T2, X. laevis CEP97 phospho-null mutant (SA; S634A, S643A, S649A, and S653A) (X. laevis) (UniProt Q6GPJ8).
T2 sequence: T1 sequence with S634A, S643A, S649A, S653A

For assay [3], the target named is T3, X. laevis CEP97 WT, exogenous, tag not named for the experiment (X. laevis) (UniProt Q6GPJ8).
T3 sequence: T1 sequence

Our source for the binding values is PMC8719716.

Where a chain is given by its changes, count along the chain named. Results are given in words; binding and its absence hold for the method and conditions named. In cells and extracts the contact can be indirect. For part of these data: Binding can be weak; no strength is given. For part of these data: Where a sequence is shown, tags or fusion partners need not be part of it.

“X. laevis Dyrk1a ΔC mutant (domain or fragment)”: in assay [1], the binding entry is “binds”.
Regarding “X. laevis Plk1 PB domains alone (PB) (domain or fragment)”, the binding entry was “no binding” in assay [2] and “binds” in assay [3].
